PubChem BioAssay AID652259 – Drosophila RNAi Screening Center | 2013

Screen: 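Knock-downs that push a Wingless-driven reporter up or down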 (primary screen)
Cells: Drosophila clone 8 imaginal disc epithelial cells
Reagents: long dsRNA against Drosophila genes
Challenge: pathway stimulated by co-transfected Wingless expression plasmid
Detection: 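Dual luciferase reads per well after Wingless plasmid stimulation: reporter firefly light and Renilla control light; activity is firefly divided by Renilla, a ratio not deposited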
Reading the numbers: firefly reporter light: higher = more Wg reporter light, before normalisation; Renilla control light: higher = more transfected or surviving cells
Active means: 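a knock-down is a candidate when at least two out of four statistical tests show it departing from its plate mean; one test alone signals a weak candidate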
Calls: active = candidate regulator (raises or lowers reporter); inactive = not a candidate
The deposit covers about 22,000 reagents; below is a random part of those that have a named target and a result. In the full data, 233 (1.1%) got an active call. 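Light values are raw, unnormalised plate reads; the ratio scores behind the reporter calls were not deposited.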 Entries without a mark were called inactive. A plus sign joins genes that one reagent is predicted to hit. Not given: the amount of reagent, the time to read-out, the dose of the treatment.

Target gene	dsRNA	firefly reporter light, replicate 1	firefly reporter light, replicate 2	Renilla control light, replicate 1	Renilla control light, replicate 2
Cpr49Ah (Cuticular protein 49Ah)	DRSC07204	4700		2352	
ste24a (prenyl protease type I)	DRSC07314	10539		4168	
tx (taxi)	DRSC16931	2685	4393	1351	1814
serp (serpentine)	DRSC11035	16225		5216	
serp (serpentine)	DRSC11036	12628		4186	
Adgf-D (Adenosine deaminase-related growth factor D)	DRSC16521	12640		2569	
Cdk8 (Cyclin-dependent kinase 8)	DRSC11113	3462		1504	
CG5498	DRSC11608	3152		1736	
FLASH (FLICE-associated huge protein)	DRSC06872	3920		1264	
CG34223	DRSC05268	18561		13312	
Git (G protein-coupled receptor kinase interacting ArfGAP)	DRSC06620	7842		2307	
CG3330	DRSC15477	2457	6500	1073	2224
Osi24 (Osiris 24)	DRSC12275	14432		4000	
CG5246	DRSC15751	13093		3856	
eIF3l (eukaryotic translation initiation factor 3 subunit l)	DRSC10530	9888		2656	
DCTN3-p24 (Dynactin 3, p24 subunit)	DRSC04592	13622		2956	
CG4860	DRSC15664	8823		3802	
CG4860	DRSC21755	3.24e5	3.28e5	1.74e5	91848
Pef (Peflin)	DRSC06695	14800		3287	
Inx6 (Innexin 6)	DRSC20579	23466		11224	
CG3795	DRSC18593	4240	7258	1515	2557
rdog (red dog mine)	DRSC14431	3872	4608	904	2236
Tlk (Tousled-like kinase)	DRSC17281	3184		892	
Tlk (Tousled-like kinase)	DRSC17731	21840		7681	
Tlk (Tousled-like kinase)	DRSC17835	12491		7372	
Tlk (Tousled-like kinase)	DRSC22924	8.56e5	9.34e5	1.43e5	83753
Tlk (Tousled-like kinase)	DRSC22926	4.97e5	5.67e5	1.10e5	97475
Tlk (Tousled-like kinase)	DRSC22938	7.28e5	7.60e5	2.29e5	2.14e5
pcs (parcas)	DRSC07042	9261		4691	
aus (argus)	DRSC13471	1819		1212	
aus (argus)	DRSC13473	2993		1483	
aus (argus)	DRSC15157	2720	7395	803	1968
Datp (Diadenosine tetraphosphatase)	DRSC01102	22880		10840	
Adss (Adenylosuccinate synthetase)	DRSC14162	2185	5488	1209	1619
CG17097	DRSC02569	3126	6043	1156	2373
Tsp29Fb (Tetraspanin 29Fb)	DRSC03233	3869	9264	995	3403
CG14499	DRSC06470	6048		2387	
MED4 (Mediator complex subunit 4)	DRSC11014	5776		1286	
alien	DRSC03482	12850		3106	
CG42307 + mus312	DRSC11008	2716	10792	1308	4731
Acsx3 (Acyl-CoA synthetase X3)	DRSC14309	1704	4545	972	1484
CG14247	DRSC14742	9419		3536	
Sfxn1-3 (Sideroflexin 1/3)	DRSC12183	20597		5613	
msl-2 (male-specific lethal 2)	DRSC00829	19452		4072	
Ptip (PAX transcription activation domain interacting protein)	DRSC10660	3868		1472	
Ptip (PAX transcription activation domain interacting protein)	DRSC11048	4611		1111	
Prx4 (Peroxiredoxin 4)	DRSC08668	6311		2736	
CG7488	DRSC16250	12711		2960	
nerfin-2 (nervous fingers 2)	DRSC14547	14704		3488	
Ugt35E1 (UDP-glycosyltransferase family 35 member E1)	DRSC15193	21259		6502	
Or1a (Odorant receptor 1a)	DRSC18689	23658		14477	
or (orange)	DRSC04329	2891	6619	756	2648
CG12502	DRSC08281	6403		2384	
RpL34b (Ribosomal protein L34b)	DRSC16475	18432		5734	
Usf	DRSC18129	20997		8802	
CG4576	DRSC15604	16170		3040	
CrzR (Corazonin receptor)	DRSC09781	4838		2712	
CrzR (Corazonin receptor)	DRSC09782	8096		2368	
osy (oskyddad)	DRSC14903	20746		21606	
osy (oskyddad)	DRSC15979	23297		18640	
osy (oskyddad)	DRSC15981	1291	3221	816	1285
CG12853	DRSC06193	10498	7.96e5	4235	4.15e5
CG31418	DRSC21780	3.73e5	4.17e5	1.69e5	1.52e5
hook	DRSC03545	7216		1164	
Ndc80	DRSC20221	3815	8944	1259	2544
Ndc80	DRSC21726	5.14e5	5.86e5	1.65e5	1.70e5
Cht5 (Chitinase 5)	DRSC16470	11907	7.67e5	4658	3.88e5
galectin	DRSC00305	2449	5939	1027	2763
CG8008	DRSC07053	7483		1234	
PNPase (Polynucleotide phosphorylase)	DRSC14304	3194	9584	1572	3338
CG9915	DRSC20217	24932		8208	
CG9915	DRSC21565	9.48e5	9.31e5	5.03e5	4.73e5
l(2)k09848 (lethal (2) k09848)	DRSC04894	14051		4394	
